Results are given in words; binding and its absence hold for the method and conditions named. Binding seen in cells or lysates may run through a third protein. Some entries that bind do so weakly or less than the wild type.

The target of this test is T1, apoptosis-associated speck-like protein containing a CARD (ASC) (mouse (endogenous in BMDMs)) (UniProt Q9EPB4).
T1 sequence: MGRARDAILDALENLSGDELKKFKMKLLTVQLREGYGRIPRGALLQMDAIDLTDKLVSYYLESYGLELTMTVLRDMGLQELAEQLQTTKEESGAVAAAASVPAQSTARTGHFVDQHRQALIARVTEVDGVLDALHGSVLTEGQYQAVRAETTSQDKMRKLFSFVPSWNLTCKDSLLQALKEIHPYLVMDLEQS
The test is described as follows: co-IP; BMDM lysates incubated with anti-ASC antibody and Protein A/G plus agarose overnight at 4°C, immunoblotting; IgG isotype control; cells treated with LPS (300 ng/ml, 3 h) and ATP (5 mM, 1 h), with or without pretreatment with koumine (KM, 200 μM, 1 h).

B1: pro-caspase-1 (protein, UniProt P29452 1-402)
chain: MADKILRAKRKQFINSVSIGTINGLLDELLEKRVLNQEEMDKIKLANITAMDKARDLCDHVSKKGPQASQIFITYICNEDCYLAGILELQSAPSAETFVATEDSKGGHPSSSETKEEQNKEDGTFPGLTGTLKFCPLEKAQKLWKENPSEIYPIMNTTTRTRLALIICNTEFQHLSPRVGAQVDLREMKLLLEDLGYTVKVKENLTALEMVKEVKEFAACPEHKTSDSTFLVFMSHGIQEGICGTTYSNEVSDILKVDTIFQMMNTLKCPSLKDKPKVIIIQACRGEKQGVVLLKDSVRDSEEDFLTDAIFEDDGIKKAHIEKDFIAFCSSTPDNVSWRHPVRGSLFIESLIKHMKEYAWSCDLEDIFRKVRFSFEQPEFRLQMPTADRVTLTKRFYLFPGH
For the molecule B1, the binding result is on record as “binds”.
